Data reported in PubChem BioAssay AID651804 (National Center for Advancing Translational Sciences (NCATS), 2012).
The whole screen tested about 1,200 compounds, of which about 20 (2%) were called active. Another 23% or so got no clear call; they are omitted. Calls follow the shape of the dose curve; as a rule, active = well fitted inhibition curve with a large enough effect; inconclusive = small, poorly fitted or top-dose-only effect; inactive = no such curve, though single readings can be large or run the other way. The list shows a part of the results.

Sequences of proteins named here, by UniProt entry; tags and fusion partners are left off. A change or cut given only in a name is not applied to a line headed by its entry.
UniProt P11308: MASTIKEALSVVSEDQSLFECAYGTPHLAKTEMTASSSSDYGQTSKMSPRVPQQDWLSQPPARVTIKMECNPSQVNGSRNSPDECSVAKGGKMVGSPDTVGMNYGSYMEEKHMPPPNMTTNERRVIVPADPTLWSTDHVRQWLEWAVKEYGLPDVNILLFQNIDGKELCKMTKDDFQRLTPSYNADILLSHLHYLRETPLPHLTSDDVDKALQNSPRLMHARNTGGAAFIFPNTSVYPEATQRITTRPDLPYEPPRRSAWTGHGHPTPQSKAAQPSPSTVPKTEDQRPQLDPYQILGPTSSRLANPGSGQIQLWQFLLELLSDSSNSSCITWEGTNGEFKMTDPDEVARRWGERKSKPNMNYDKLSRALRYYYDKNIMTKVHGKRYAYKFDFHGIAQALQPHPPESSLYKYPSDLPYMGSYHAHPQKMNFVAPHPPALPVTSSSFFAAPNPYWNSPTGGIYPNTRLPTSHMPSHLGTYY

What follows are molecules tested against Transcriptional regulator ERG (Homo sapiens) (UniProt P11308) (assay: qHTS for Small Molecule Inhibitors of the ERG Ets/DNA interaction: HTRF assay against cherry picks). Settings: His-ERG Ets domain with biotin-DNA; series mostly up to 154 µM; activity change, negative = inhibition: at the top concentration.
Outline: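 Compounds were incubated 10 min at RT with ERG Ets domain and biotinylated DNA (each added as 200 nM solution) in pH 7.5 Tris/KCl/EDTA/DTT buffer. Binding was read as FRET (ex 320, em 615 and 665 nm) between anti-His donor and streptavidin acceptor.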

Activity change, negative = inhibition, inactive:
O=C(O)CNC(=O)/C(=C\c1ccc2c(c1)OCO2)NC(=O)c1ccc(Br)cc1 -15.4%
Cc1ccc(C)c(N2CCN(C(=O)C(C)n3c(C)c4cnn(-c5ccccc5)c(=O)c4c3C)CC2)c1 (stereo not given) -4.67%
CCc1c(C(=O)N/N=C/c2sccc2C)nnn1-c1nonc1N -12.1%
Cc1noc(C)c1C(=O)NCc1cccs1 -4.03%
CN(CC(=O)NC(=O)NC1CCCCC1)CC(=O)Nc1ccc(Cl)cc1 -7.16%
COC(=O)C1CSC(C(=O)OC)N1C(=O)CN1CCN(c2ccccc2)CC1 (stereo not given) 5.94%
Cc1ccc(-n2c(C)cc(C(=O)NS(=O)(=O)c3ccc(C)cc3)c2C)cc1 -22.5%
COCCN(Cc1cc2cc(C)ccc2n2nnnc12)C(=S)Nc1ccc(OC)cc1 167%
Nc1cnccc1C(=O)O -25.4%
CCNC(=S)NC(=NCc1cccnc1)Nc1nc(C)cc(C)n1 -8.54%
CC(=O)Nc1ccc(S(=O)(=O)Nc2nc3ccccc3nc2Nc2ccc(O)c(C(=O)O)c2)cc1 -17.6%
CCNC(=S)N1CCC(C(O)(c2ccccc2)c2ccccc2)CC1 3.45%
C[C@@H]1CN([C@H](C)CO)C(=O)c2cc(NC(=O)Nc3ccc(F)cc3)ccc2O[C@H]1CN(C)C(=O)Nc1ccc(C(F)(F)F)cc1 -29.3%
C=CCOc1ccc(C(c2c(C(=O)O)[nH]c3ccccc23)c2c(C(=O)O)[nH]c3ccccc23)cc1 -22.4%
O=C(CC1C[C@H](C(=O)N2CCOCC2)[C@@]2(CCC3CCCC3)c3[nH]c4ccccc4c3CCN2C1=O)NCC12CC3CC(CC(C3)C1)C2 (stereo not given in full) -15.3%
Cc1cc(C)cc(N2C(=O)c3nccnc3C2=O)c1 -25.9%
CCOc1cc(CNCC2CCCN2CC)cc(Cl)c1OC (stereo not given) -27.4%
Cc1cccc(N2C(=O)CC(Cn3nc(C)cc3C)C2=O)c1 (stereo not given) 6.26%
COc1ccc(CCNC(=O)CCNC(=O)c2ccco2)cc1 7.27%
Oc1ccc(NCc2ccc(OCc3ccccc3Cl)cc2)cc1 -22.3%
Cc1nc(-c2ccc(F)cc2)c(CC(=O)Nc2ccc(C)c(S(=O)(=O)N3CCOCC3)c2)s1 -19.5%
Cc1cc2cc(CNC(=O)c3ccc(S(=O)(=O)N4CCCCC4)cc3)ccc2n1C 137%
CCOc1ccc(-c2ncncc2-c2ccccc2OC)c(O)c1 -28.8%
COc1ccc(N2CC(NC(=O)c3ccc4c(c3)OCO4)CC2=O)cc1 (stereo not given) -28.4%
CC(NC(=O)c1ccco1)c1nc(-c2ccc(C(C)(C)C)cc2)no1 (stereo not given) -19.6%
CCN(CC)c1ccc([N+](=O)[O-])cc1C(=O)O -28%
COc1ccc(CCNC(=O)Cn2c(=O)n(CCCC(=O)NCc3ccco3)c(=O)c3sccc32)cc1OC -5.73%
O=C(NCc1ccc2c(c1)OCO2)C1CCN(S(=O)(=O)N2CCCCC2)CC1 -18.2%
CN(C)c1nc(N)nc(Cn2nnc(-c3ccc(C(F)(F)F)cc3)n2)n1 -38.6%
Nc1nc(Cl)c2ncn(C3OC(CO)C(O)C3O)c2n1 (stereo not given) -9.18%

Ordered by count of non-hydrogen atoms (largest number first): part of the list above.
Activity change, negative = inhibition, inactive:
Cc1ccc(-n2c(C)cc(C(=O)NS(=O)(=O)c3ccc(C)cc3)c2C)cc1 -22.5%
Oc1ccc(NCc2ccc(OCc3ccccc3Cl)cc2)cc1 -22.3%
Nc1nc(Cl)c2ncn(C3OC(CO)C(O)C3O)c2n1 (stereo not given) -9.18%
